{"sequences": {"note": "Chains of the proteins cited; added tags and fusions are not shown. Lines headed by an entry give the natural chain unless they say otherwise; changes in a name come on top.", "UniProt P27958": "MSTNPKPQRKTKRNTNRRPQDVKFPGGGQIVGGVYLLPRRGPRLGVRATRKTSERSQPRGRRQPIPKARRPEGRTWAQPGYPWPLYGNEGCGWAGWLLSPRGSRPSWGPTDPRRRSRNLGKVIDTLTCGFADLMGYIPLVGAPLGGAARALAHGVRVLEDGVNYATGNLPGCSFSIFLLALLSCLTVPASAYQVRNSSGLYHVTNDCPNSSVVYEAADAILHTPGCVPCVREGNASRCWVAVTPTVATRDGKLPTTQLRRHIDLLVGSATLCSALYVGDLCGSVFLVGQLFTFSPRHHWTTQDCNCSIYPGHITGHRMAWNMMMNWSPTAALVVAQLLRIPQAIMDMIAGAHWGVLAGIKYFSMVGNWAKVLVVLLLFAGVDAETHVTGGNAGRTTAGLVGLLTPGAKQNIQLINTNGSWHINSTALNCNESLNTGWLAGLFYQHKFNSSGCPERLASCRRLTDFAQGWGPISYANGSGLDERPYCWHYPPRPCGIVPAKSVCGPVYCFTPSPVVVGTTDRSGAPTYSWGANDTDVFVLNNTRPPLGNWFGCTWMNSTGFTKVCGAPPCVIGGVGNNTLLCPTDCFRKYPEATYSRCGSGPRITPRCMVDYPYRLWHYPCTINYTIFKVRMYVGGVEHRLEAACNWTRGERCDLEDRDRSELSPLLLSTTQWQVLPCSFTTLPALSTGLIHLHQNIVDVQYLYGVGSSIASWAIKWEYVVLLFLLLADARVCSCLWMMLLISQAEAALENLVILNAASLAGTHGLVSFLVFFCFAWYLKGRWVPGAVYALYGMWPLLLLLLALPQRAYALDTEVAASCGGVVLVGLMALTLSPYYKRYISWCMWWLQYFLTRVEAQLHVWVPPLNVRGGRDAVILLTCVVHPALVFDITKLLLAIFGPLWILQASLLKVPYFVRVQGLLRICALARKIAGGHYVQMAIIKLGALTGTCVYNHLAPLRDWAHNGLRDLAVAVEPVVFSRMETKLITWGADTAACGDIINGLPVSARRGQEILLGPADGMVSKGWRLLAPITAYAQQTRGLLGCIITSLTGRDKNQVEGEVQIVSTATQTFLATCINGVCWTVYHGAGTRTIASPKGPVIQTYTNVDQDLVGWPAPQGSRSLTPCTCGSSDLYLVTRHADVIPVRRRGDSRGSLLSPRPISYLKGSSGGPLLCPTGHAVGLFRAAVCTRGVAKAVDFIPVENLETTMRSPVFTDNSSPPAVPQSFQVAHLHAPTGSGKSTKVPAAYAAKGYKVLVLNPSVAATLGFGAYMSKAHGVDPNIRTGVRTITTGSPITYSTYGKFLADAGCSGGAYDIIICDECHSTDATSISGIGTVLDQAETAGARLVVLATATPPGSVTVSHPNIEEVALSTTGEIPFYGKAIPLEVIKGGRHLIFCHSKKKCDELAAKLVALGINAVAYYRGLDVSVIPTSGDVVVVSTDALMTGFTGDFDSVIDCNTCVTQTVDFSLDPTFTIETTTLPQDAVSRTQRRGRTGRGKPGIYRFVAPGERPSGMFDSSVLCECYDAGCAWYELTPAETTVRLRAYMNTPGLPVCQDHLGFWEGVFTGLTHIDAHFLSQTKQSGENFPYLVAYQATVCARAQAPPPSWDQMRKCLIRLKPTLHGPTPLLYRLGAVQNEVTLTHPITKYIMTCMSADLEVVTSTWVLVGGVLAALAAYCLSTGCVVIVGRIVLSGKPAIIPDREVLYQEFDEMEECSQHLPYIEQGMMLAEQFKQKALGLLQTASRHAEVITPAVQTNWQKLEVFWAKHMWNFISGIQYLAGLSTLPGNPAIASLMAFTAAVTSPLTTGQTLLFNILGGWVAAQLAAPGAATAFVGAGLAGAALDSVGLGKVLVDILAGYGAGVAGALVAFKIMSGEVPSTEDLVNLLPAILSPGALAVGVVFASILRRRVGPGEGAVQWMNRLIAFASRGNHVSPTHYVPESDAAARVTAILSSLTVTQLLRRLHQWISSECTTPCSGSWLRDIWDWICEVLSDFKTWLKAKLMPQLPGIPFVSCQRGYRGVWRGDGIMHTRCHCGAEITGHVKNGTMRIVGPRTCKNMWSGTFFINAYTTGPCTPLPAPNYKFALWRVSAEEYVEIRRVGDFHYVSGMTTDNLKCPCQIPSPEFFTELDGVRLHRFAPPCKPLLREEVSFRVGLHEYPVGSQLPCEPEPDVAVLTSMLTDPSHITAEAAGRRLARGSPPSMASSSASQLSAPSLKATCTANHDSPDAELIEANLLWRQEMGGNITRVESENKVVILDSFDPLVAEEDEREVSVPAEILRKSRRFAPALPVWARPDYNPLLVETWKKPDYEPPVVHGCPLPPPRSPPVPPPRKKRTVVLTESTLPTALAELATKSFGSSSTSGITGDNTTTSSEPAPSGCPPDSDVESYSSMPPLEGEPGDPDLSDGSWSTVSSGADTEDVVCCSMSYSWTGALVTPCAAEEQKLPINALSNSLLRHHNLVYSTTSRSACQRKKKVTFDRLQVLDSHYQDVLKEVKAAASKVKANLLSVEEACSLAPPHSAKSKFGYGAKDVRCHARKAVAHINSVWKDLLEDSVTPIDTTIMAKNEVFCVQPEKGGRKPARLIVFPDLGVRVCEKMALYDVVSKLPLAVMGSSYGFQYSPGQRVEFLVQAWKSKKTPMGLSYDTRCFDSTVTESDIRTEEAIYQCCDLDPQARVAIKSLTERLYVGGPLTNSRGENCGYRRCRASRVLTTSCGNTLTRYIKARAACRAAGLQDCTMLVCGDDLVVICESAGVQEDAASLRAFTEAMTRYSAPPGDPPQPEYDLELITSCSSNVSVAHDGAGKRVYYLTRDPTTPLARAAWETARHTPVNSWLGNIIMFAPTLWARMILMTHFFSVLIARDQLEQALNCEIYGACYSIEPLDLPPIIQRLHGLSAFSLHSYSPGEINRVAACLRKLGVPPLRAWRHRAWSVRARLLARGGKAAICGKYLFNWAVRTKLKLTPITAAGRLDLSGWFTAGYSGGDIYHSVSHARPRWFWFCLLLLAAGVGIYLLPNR"}, "source": "paper PMC5126206", "key": {"[1]": {"target": "T1, Myc-TIPE2 (UniProt Q6P589)", "T1 sequence": "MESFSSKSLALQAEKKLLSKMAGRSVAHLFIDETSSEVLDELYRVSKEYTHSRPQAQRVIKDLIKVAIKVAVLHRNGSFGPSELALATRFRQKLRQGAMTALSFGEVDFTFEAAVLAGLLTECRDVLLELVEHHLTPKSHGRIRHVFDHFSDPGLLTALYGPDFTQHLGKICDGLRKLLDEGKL", "assay": "co-IP; 293T cells transiently co-transfected with the two tagged proteins; IP lysis buffer with protease and phosphatase inhibitors; about 1 mg protein with primary antibody or isotype IgG at 4 °C overnight; protein A-agarose beads; five washes in TBST; Western blot"}, "[2]": {"target": "T2, FLAG-TIPE2 (UniProt Q6P589)", "T2 sequence": "T1 sequence", "assay": "co-IP; 293T cells transiently co-transfected with the two tagged proteins; IP lysis buffer with protease and phosphatase inhibitors; about 1 mg protein with primary antibody or isotype IgG at 4 °C overnight; protein A-agarose beads; five washes in TBST; Western blot"}, "[3]": {"target": "T3, TIPE2 (stably expressed in Huh7 cells) (UniProt Q6P589)", "T3 sequence": "T1 sequence", "assay": "co-IP; Huh7 TIPE2 stable cells in a 10-cm dish transfected with 6 μg myc-NS5A plasmids; co-IP 48 h later 'as above'"}}, "note": "Results are given in words; binding and its absence hold for the method and conditions named. In cells and extracts the contact can be indirect. Binding calls can cover weak binding; strength is not graded here. For part of these data: Sequences can lack the tags named with a protein."}
{"substance": "FLAG-NS5A (from UniProt P27958)", "values": [{"measurement": "binding", "setting": "[1]", "value": "binds"}]}
{"substance": "myc-NS5A (in 293T cells) (from UniProt P27958)", "values": [{"measurement": "binding", "setting": "[2]", "value": "binds"}]}
{"substance": "myc-NS5A (in Huh7 TIPE2 stable cells) (from UniProt P27958)", "values": [{"measurement": "binding", "setting": "[3]", "value": "binds"}]}
